Patent US6683052B1 (Institut National de la Sante et de la Recherche Medicale …, priority 1998, dated 2004)
HELM strings list residues between dots; [ac] is acetyl, [am] amide, other brackets name non-standard units.

Assay: solid-phase peptide synthesis
Conditions: whole synthesis, scale 0.25 mmol

## PEPTIDE1{[ac].[K(Pam)].A.K.F.E.V.N.N.P.Q.V.Q.R.Q.A.F.N.E.L.I.R.V.V.H.Q.L.L.P.E.S.S.L.R.K.R.K.R.S.R.[am]}$$$$V2.0
RP-HPLC on C3 Zorbax, homogeneity confirmed in two different RP-HPLC systems
  final HPLC purity: greater than 95%
cumulative
  isolated yield: 10%
  isolated mass: 140 mg
